The term EC50 denotes the concentration giving half of the maximal effect. Higher therefore signals a need for much substance.

Some results are limits rather than exact numbers.

In this test the test system is Peripheral blood mononuclear cells (PBMCs). The experiment in a line: Influence of compounds on T cell proliferation ([3H]-Thymidin, anti-CD3-stimulated PBMCs). It counts as cell-based. As to conditions: PBMC, three different human donors. An excerpt: Peripheral blood mononuclear cells (PBMCs) were isolated from peripheral blood by Ficoll gradient centrifugation. […] Subsequently, the cells were washed three times with PBS and were resuspended in 96-well plates in a concentration of 2×10^5 cells/well. […] As positive and negative controls, PBMCs, stimulated with soluble anti-CD3-antibody, and non-stimulated PBMCs plus 0,1% DMSO were used. The addition of 0,1% DMSO had no effect on the proliferation rate. […] The cells were harvested using a Mikro 96 Harvester (Skatron Instruments, Lier, Norwegen). The cpm-values indicative for proliferation were determined using a Packard Matrix 9600 Counter (Canberra Packard, Schwadorf, Österreich). The experiments were made with three different human donors.
In order to determine the EC50 of test compounds, the value of anti-CD3-stimulated cells plus 0,1% DMSO was set as 100%. All other values were divided by the 100% value in order to obtain a relative percentage of inhibition. The obtained percentage values were used to determine the EC50 values using Sigma Plot.

Take `O=C1CN(S(=O)(=O)c2ccc(Cl)cc2)c2ccccc2-c2ccccc21` [Example 80, 5-(4-Chloro-benzenesulfonyl)-5,6-dihydro-dibenzo[b,d]azepin-7-one]: the EC50 is less than 25 µM.

For the origin of these results see US20100216772A1, “Novel Phenantridine Analogues and Uses Thereof” (priority 2004, published 2010).
